Publication PMC12578389

By UniProt entry, the sequences of proteins in these tests, tags left out.
UniProt Q9Z1S8: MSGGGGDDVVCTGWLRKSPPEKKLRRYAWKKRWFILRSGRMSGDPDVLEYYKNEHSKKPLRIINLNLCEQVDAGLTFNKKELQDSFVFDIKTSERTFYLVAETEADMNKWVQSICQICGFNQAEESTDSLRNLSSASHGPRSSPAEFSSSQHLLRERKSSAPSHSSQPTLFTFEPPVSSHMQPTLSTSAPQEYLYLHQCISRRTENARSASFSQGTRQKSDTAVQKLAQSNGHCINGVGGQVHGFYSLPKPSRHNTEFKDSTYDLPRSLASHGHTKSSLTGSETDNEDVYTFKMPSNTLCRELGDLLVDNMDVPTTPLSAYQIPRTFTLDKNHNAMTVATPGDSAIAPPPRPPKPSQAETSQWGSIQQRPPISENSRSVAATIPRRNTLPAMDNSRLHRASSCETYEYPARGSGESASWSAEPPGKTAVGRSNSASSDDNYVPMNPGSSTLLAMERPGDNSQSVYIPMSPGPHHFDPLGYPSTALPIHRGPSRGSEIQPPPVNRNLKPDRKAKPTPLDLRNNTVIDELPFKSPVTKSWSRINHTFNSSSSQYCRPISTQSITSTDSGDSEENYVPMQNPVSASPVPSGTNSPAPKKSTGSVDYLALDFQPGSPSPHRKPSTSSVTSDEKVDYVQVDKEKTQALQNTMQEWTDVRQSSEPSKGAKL
UniProt Q8BTI9: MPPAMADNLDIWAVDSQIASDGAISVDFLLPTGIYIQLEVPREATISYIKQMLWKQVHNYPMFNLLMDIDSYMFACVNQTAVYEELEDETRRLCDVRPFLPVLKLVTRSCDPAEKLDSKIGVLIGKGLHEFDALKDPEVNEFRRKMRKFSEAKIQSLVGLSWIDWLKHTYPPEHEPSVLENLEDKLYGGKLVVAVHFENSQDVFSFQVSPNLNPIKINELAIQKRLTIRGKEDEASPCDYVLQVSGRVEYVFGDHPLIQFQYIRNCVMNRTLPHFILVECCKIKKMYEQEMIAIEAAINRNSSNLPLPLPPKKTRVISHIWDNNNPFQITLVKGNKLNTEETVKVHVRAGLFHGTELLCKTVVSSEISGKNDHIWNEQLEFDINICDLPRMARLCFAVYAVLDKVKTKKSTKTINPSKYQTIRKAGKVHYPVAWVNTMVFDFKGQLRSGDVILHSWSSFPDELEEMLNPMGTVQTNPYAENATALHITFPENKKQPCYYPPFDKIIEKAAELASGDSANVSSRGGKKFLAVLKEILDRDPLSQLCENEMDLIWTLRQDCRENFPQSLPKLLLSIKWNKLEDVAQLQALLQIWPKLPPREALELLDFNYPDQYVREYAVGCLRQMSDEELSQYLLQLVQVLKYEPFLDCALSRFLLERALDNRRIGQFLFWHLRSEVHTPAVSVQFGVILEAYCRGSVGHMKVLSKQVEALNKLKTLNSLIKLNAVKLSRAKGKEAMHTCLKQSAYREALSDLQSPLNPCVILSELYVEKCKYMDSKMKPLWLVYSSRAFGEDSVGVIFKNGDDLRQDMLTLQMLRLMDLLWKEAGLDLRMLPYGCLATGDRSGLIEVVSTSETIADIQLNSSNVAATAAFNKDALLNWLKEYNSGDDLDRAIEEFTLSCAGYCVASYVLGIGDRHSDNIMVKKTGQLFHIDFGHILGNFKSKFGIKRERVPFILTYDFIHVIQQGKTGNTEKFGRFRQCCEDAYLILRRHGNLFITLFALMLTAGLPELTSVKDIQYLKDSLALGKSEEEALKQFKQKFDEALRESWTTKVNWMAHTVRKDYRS
UniProt P26450: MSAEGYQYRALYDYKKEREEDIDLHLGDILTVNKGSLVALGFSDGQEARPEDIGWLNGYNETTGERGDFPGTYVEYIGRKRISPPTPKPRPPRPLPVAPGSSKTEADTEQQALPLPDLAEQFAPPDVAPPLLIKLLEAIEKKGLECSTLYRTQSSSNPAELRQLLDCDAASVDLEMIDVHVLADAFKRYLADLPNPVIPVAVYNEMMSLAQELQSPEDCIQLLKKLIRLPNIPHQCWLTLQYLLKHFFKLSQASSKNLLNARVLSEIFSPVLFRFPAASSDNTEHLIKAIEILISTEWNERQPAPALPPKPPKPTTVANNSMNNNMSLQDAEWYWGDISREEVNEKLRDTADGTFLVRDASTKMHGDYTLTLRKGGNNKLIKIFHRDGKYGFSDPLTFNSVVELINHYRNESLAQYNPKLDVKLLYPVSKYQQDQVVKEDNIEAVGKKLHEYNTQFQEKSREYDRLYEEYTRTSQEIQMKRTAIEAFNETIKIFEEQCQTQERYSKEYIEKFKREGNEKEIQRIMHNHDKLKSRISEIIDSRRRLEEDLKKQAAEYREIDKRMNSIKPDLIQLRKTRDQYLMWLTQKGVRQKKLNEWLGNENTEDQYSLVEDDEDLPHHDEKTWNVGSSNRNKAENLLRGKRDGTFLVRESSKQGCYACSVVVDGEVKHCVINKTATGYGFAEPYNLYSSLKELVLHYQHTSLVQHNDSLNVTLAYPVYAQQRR
UniProt P42337: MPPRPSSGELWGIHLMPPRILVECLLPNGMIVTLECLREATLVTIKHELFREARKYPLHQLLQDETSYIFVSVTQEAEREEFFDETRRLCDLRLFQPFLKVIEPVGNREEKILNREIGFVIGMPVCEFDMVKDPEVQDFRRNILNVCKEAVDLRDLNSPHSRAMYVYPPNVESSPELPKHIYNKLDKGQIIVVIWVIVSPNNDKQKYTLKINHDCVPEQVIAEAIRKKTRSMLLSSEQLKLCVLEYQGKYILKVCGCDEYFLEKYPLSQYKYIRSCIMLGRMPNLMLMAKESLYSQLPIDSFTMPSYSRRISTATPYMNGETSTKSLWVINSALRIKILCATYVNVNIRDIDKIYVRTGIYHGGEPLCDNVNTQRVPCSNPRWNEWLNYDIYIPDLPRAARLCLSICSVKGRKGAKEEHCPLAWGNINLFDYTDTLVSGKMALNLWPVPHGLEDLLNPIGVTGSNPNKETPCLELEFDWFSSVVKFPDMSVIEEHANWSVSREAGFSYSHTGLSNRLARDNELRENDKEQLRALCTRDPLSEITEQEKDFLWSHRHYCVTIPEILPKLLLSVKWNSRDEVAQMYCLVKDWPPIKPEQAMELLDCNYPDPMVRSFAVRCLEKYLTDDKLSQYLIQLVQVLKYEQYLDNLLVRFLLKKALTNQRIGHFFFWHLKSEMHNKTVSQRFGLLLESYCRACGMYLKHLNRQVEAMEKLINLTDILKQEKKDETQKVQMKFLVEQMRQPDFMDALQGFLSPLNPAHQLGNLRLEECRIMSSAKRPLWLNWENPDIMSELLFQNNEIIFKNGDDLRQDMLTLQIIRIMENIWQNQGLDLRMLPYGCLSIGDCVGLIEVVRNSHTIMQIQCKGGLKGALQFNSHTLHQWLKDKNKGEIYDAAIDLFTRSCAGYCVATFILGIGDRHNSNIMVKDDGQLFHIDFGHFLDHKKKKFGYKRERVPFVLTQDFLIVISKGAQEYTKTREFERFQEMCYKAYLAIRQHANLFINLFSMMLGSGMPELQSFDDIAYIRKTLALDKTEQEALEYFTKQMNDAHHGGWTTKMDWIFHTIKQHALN

B1: PIK3CD (PI3 kinase p110 subunit), endogenous in murine bone marrow HSPCs (protein, UniProt O35904 1-1043)
chain: MPPGVDCPMEFWTKEESQSVVVDFLLPTGVYLNFPVSRNANLSTIKQVLWHRAQYEPLFHMLSDPEAYVFTCVNQTAEQQELEDEQRRLCDIQPFLPVLRLVAREGDRVKKLINSQISLLIGKGLHEFDSLRDPEVNDFRTKMRQFCEEAAAHRQQLGWVEWLQYSFPLQLEPSARGWRAGLLRVSNRALLVNVKFEGSEESFTFQVSTKDMPLALMACALRKKATVFRQPLVEQPEEYALQVNGRHEYLYGNYPLCHFQYICSCLHSGLTPHLTMVHSSSILAMRDEQSNPAPQVQKPRAKPPPIPAKKPSSVSLWSLEQPFSIELIEGRKVNADERMKLVVQAGLFHGNEMLCKTVSSSEVNVCSEPVWKQRLEFDISVCDLPRMARLCFALYAVVEKAKKARSTKKKSKKADCPIAWANLMLFDYKDQLKTGERCLYMWPSVPDEKGELLNPAGTVRGNPNTESAAALVIYLPEVAPHPVYFPALEKILELGRHGERGRITEEELQLREILERRGSGELYEHEKDLVWKMRHEVQEHFPEALARLLLVTKWNKHEDVAQMLYLLCSWPELPVLSALELLDFSFPDCYVGSFAIKSLRKLTDDELFQYLLQLVQVLKYESYLDCELTKFLLGRALANRKIGHFLFWHLRSEMHVPSVALRFGLIMEAYCRGSTHHMKVLMKQGEALSKLKALNDFVKVSSQKTTKPQTKEMMHMCMRQETYMEALSHLQSPLDPSTLLEEVCVEQCTFMDSKMKPLWIMYSSEEAGSAGNVGIIFKNGDDLRQDMLTLQMIQLMDVLWKQEGLDLRMTPYGCLPTGDRTGLIEVVLHSDTIANIQLNKSNMAATAAFNKDALLNWLKSKNPGEALDRAIEEFTLSCAGYCVATYVLGIGDRHSDNIMIRESGQLFHIDFGHFLGNFKTKFGINRERVPFILTYDFVHVIQQGKTNNSEKFERFRGYCERAYTILRRHGLLFLHLFALMRAAGLPELSCSKDIQYLKDSLALGKTEEEALKHFRVKFNEALRESWKTKVNWLAHNVSKDNRQ

Target: GAB2 (Grb2-associated binding protein 2) fused to TurboID, bait (UniProt Q9Z1S8)
Assay: proximity labelling; TurboID fused to the N- or C-terminus of the bait, MSCV retrovirus in primary lineage-depleted murine bone marrow HSPCs of the genotypes WT, Dnmt3a^R878H/+ or Dnmt3a^R878H/+ x Npm1^cA/+; streptavidin bead pulldown, mass spectrometry, spectral counts against TurboID alone

binding, binds:
PIK3CB, endogenous in murine bone marrow HSPCs (from UniProt Q8BTI9 1-1064)
CBL, endogenous in murine bone marrow HSPCs (from UniProt P22682 1-913)
PIK3R1 (PI3K regulatory subunit), endogenous in murine bone marrow HSPCs (from UniProt P26450 1-724)
PIK3CA, endogenous in murine bone marrow HSPCs (from UniProt P42337 1-1068)
PI4KA, endogenous in murine bone marrow HSPCs (from UniProt E9Q3L2 1-2105)
B1

These are yes or no findings as the source states them, for the method shown. Binding seen in cells or lysates may run through a third protein. These calls come from enrichment with a bait or labelling near it, and not all partners need be listed.
